For at least one compound, name, drawing or mass did not settle the structure.
System: OVA-induced inflammatory cell recruitment
Assay: BAL fluid total and differential inflammatory cell counts, OVA mouse asthma model
Type: in vivo, BALB/c mice
Details: low dose given alone
Description: Female BALB/c mice (Interfauna, East Yorkshire, UK), were housed in appropriate cages (maximum 4 mice/cage) at the Animal Holding Unit (AHU), NUS. The temperature and humidity of the housing environment were maintained at approximately 22° C. and 55% respectively. Commercial mouse feed and water were provided ad libitum. The beddings were changed three times a week to ensure cleanliness of the living conditions. The handling of mice and the experiments carried out strictly followed the guidelines approved by the Institutional Animal Care and Use Committee (IACUC) of NUS, Singapore.
All mice were acclimatized for at least one week before sensitization. A sensitization mixture was prepared by dissolving 20 μg of OVA and 4 mg of Al(OH)3 in 0.1 ml of Saline. The murine asthma model was developed by sensitizing the mice with 0.1 ml of sensitization mixture on Day 0 and Day 14 using intraperitoneal (i.p.) injections.
The sensitized mice were subjected to airway challenge to produce both the control model as well as the asthma model. A challenge mix was prepared by dissolving 0.15 g OVA into 15 ml of saline solution. The mice were then challenged with aerosolized 1% OVA for 30 minutes on Day 22, 23, 24 to stimulate asthmatic response. A negative control for the asthma model was developed by performing saline challenge on several mice. In this case, 15 ml of saline was used as the challenge mix. […]

## C[C@@H]1C[C@H]2[C@@H]3CCC4=CC(=O)C=C[C@]4(C)[C@@]3(F)[C@@H](O)C[C@]2(C)[C@@]1(O)C(=O)CO [Dexamethasone, reference compound]
  anti-inflammatory effects in mouse asthma model: do not show any anti-inflammatory effects
